{"source": "PubChem BioAssay AID1508600", "about": "(Functional Genomics Laboratory (NCATS/FGL), 2020)", "note": "Among all 53,000 sequences or so, about 3,700 (7%) were called active.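 The calls were made as follows: active = gene knockdowns whose robust z-score for IL-1 alpha signal is at least 2 or at most -2, so actives lie on both sides; inactive = the rest.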 The list shows a part of the results."}
{"assay": "Components of the Cytosolic LPS Sensing Pathway: Gene Identification via Genome-wide siRNA Screen;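 also: robust z of the log signal after scaling to non-targeting control siRNA wells of the plate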", "conditions": "RAW264.7 macrophages, IL-1a HTRF, actives lie on both sides, screened at 100 nM (by protocol), cells primed 5 h with Pam3CSK4 first", "summary_of_the_method": "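Using IL-1a HTRF as read-out, the screen measured release from RAW264.7 cells after 48h siRNA knockdown (100 nM), 5 h Pam3CSK4 priming and 24 h cytosolic LipidA. Values were expressed relative to negative-control wells as robust z-scores.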"}
{"sequence": "GCCACCUUUAAAGAACCUUTT against Zeb1", "z-score": "inactive: -0.863"}
{"sequence": "CGUGGAGGUAUGCACACGUTT against Ndrg1", "z-score": "inactive: -1.96"}
{"sequence": "CGGCAUGAGCAGUUUAUAUTT against Col19a1", "z-score": "inactive: -1.04"}
{"sequence": "GCCAUGAUACCUUGUUAUUTT against Plppr5", "z-score": "inactive: 1.08"}
{"sequence": "GCUAUUAAGUUUACCCUAGTT against A730089K16Rik", "z-score": "inactive: -1.31"}
{"sequence": "CCGUCUUAAUUCUCACCUUTT against Fastkd5", "z-score": "inactive: 0.573"}
{"sequence": "GGUCCGGUCUCAGACUUCATT against Ift27", "z-score": "inactive: 1.16"}
{"sequence": "GGUGUAGUAAUAGGAUUUUTT against Ak3", "z-score": "inactive: 0.227"}
{"sequence": "GGCCAUGGUACACAAUGGUTT against Obp2a", "z-score": "inactive: -0.416"}
{"sequence": "GCAACCAUUCAAACAUUUGTT against Sun3", "z-score": "inactive: 1.87"}
{"sequence": "GGAUUUAAGUCAAAUCUCUTT against Rxfp3", "z-score": "inactive: 0.439"}
{"sequence": "GCAAGAUUUAUCUUGUACCTT against Tex2", "z-score": "inactive: -0.576"}
{"sequence": "GGCUCAUUUCCUUAUAUGATT against Nepro", "z-score": "inactive: -0.259"}
{"sequence": "CGAGUCAAAAUCGAAUGAUTT against Mios", "z-score": "inactive: -0.168"}
{"sequence": "GGUGAUAACUCCCUAGUAGTT against Elp5", "z-score": "inactive: -0.934"}
{"sequence": "GGUUUUCUUCAACAUCCUGTT against Bcs1l", "z-score": "inactive: 0.0241"}
{"sequence": "CCUUGUGCCGAGAUUUUCCTT against Tceal5", "z-score": "inactive: 0.49"}
{"sequence": "GGAAGAGAUCGAUGAGACUTT against Cyp3a41a", "z-score": "inactive: 0.91"}
{"sequence": "GGCUUCUACACAUGGGAUGTT against Rnaset2b", "z-score": "inactive: -0.394"}
{"sequence": "CGUGCUAAAUGCUUGUGUGTT against Ramac", "z-score": "inactive: 0.138"}
{"sequence": "GGAUUUGGCUAUAUCAACATT against Rfc2", "z-score": "inactive: -1.56"}
{"sequence": "GGAGGAGACUAAAGAAAAUTT against Myf6", "z-score": "inactive: -1.53"}
{"sequence": "GGUCACUCGGUUCACAAAATT against Bid", "z-score": "inactive: -0.731"}
{"sequence": "GGAAUGAAGACAAUUGUACTT against Trim69", "z-score": "inactive: -0.147"}
{"sequence": "GGUCAUCACCUAUGCAGGGTT against Olfr1353", "z-score": "inactive: 0.707"}
{"sequence": "GGAAGAUCCAUUAUUUACUTT against Fam160b1", "z-score": "inactive: 0.349"}
{"sequence": "GGAUGACAAGAAUACAAUGTT against Myo5a", "z-score": "inactive: 0.171"}
{"sequence": "GGUGGCUCUGAAGAAAGUGTT against Cdk9", "z-score": "inactive: -1.02"}
{"sequence": "GGUCAUCUGCUAAUAGAAUTT against Bcap29", "z-score": "inactive: 1.86"}
{"sequence": "GGAUGCUCAUGGACCUUUGTT against Olfr1122", "z-score": "inactive: 0.931"}
{"sequence": "GCAAGCAACCCAUAGUCUATT against Hoxc4", "z-score": "inactive: -0.39"}
{"sequence": "GGAAAGAAAGACAAAGAAGTT against Cst6", "z-score": "inactive: 0.0489"}
{"sequence": "UGGCGUGUCUCCUAUCCAUTT against Abl2", "z-score": "inactive: -1.53"}
{"sequence": "GCUUUUAGGUGUGCUGUCCTT against Psg28", "z-score": "inactive: -0.949"}
{"sequence": "CCUUGUUGUGACAAGCUUUTT against Rchy1", "z-score": "inactive: -0.362"}
{"sequence": "CGUGAGACCCUCAAGCUUGTT against Fam110b", "z-score": "inactive: -0.777"}
{"sequence": "GCUCUAUGGGAGAUUUGGATT against Itga2b", "z-score": "inactive: -0.399"}
{"sequence": "GCAGAGGAGUUUUCAAUUUTT against Il17rb", "z-score": "inactive: 0.997"}
{"sequence": "GGGUGGAAGCUUUGAGAGATT against Bag2", "z-score": "inactive: 0.376"}
{"sequence": "GCCUGCGUCUUGUUCUGAGTT against Agtr1a", "z-score": "inactive: -0.232"}
{"sequence": "GGACUUUGUACGUUUCCUUTT against H1f0", "z-score": "inactive: -1.59"}
{"sequence": "GGACAAGAAAUACACCAUGTT against Gstm2", "z-score": "inactive: -1.8"}
{"sequence": "GGCCUUUGUAUUUCCCAAGTT against Crp", "z-score": "inactive: 0.244"}
{"sequence": "GCCUAUGAAGGAACCACAUTT against Cdh2", "z-score": "inactive: 1.39"}
{"sequence": "GGCUCAUUUGCUGAGUGUGTT against Fscn2", "z-score": "inactive: 1.68"}
{"sequence": "GGAUCCUUCUCUGUAAUAUTT against Ubxn2b", "z-score": "inactive: -1.34"}
{"sequence": "CCUGUUUUUGCUACAUAGATT against Hhat", "z-score": "inactive: 0.905"}
{"sequence": "CGGUUACUUGUAACAUUCCTT against Stoml3", "z-score": "inactive: 1.04"}
{"sequence": "GGUUUUUGUUAAGGUCAAUTT against Abca16", "z-score": "inactive: 0.209"}
{"sequence": "GGCUUUCCGUAUAACCUACTT against 1700018F24Rik", "z-score": "inactive: 0.0527"}
{"sequence": "GGAGUUUCUAUUCAACAUGTT against Hoxa10", "z-score": "inactive: 0.544"}
{"sequence": "GGGUUUAUUAGAUUUGUCUTT against Ammecr1", "z-score": "inactive: -0.494"}
{"sequence": "GGACACUCAAUGAAAUCUATT against Foxp3", "z-score": "inactive: 1.21"}
{"sequence": "GGUUUACAAAGGCACACCCTT against Prim2", "z-score": "inactive: 1.08"}
{"sequence": "GGUGGUUGAAAUAUGAUGATT against Klhl7", "z-score": "inactive: -0.306"}
{"sequence": "CGUAUUCUGGUAGUGAAGGTT against Olfr1384", "z-score": "active: -2.3"}
{"sequence": "CCUUUUUGCUGAAUGUGGATT against Aard", "z-score": "inactive: 0.798"}
{"sequence": "GCAACCUGUUAACAGAAGUTT against Tmco6", "z-score": "inactive: 0.324"}
{"sequence": "GGAAGAGGAGGAAAAGUCUTT against Armcx1", "z-score": "inactive: -1.24"}
{"sequence": "GGGUGACAGACAAUGGUCUTT against Hk2", "z-score": "inactive: 0.528"}
{"sequence": "GCCCAAGCAGUUCAUUCAUTT against Epc2", "z-score": "inactive: 0.665"}
{"sequence": "GUCCUGGAAGAAAUGAGAATT against Ifna4", "z-score": "inactive: 0.781"}
{"sequence": "GGAGAAGACUUGUAACAAATT against Hacd4", "z-score": "active: 5.28"}
{"sequence": "GGGUGUAGACAGUUCUUUGTT against Adam30", "z-score": "inactive: 0.78"}
{"sequence": "GCACUGAAACUCCAUCCUATT against Rag1", "z-score": "inactive: 0.85"}
{"sequence": "GGCCCAUUACUUGUUGACUTT against Fanci", "z-score": "inactive: 0.378"}
{"sequence": "GGCCUUUGUGCGCACUUAUTT against Armc5", "z-score": "inactive: -0.616"}
{"sequence": "GGAGAGAAGAUCAUUUCAATT against Ncam2", "z-score": "active: 2.38"}
{"sequence": "GGACCUAUUGAAGGCAAAATT against Nfkb1", "z-score": "inactive: 1.6"}
{"sequence": "GGAGCAAAAACCUCUAAAUTT against Itgb1bp2", "z-score": "inactive: 0.51"}
{"sequence": "GGAAUUUUCCAACAUGGACTT against P4htm", "z-score": "inactive: -0.704"}
{"sequence": "CGCAAAAUAAAGAGGUGGCTT against Dhrs3", "z-score": "inactive: 0.175"}
{"sequence": "GGAGUAUUUUCCUCUCUGUTT against Klhl31", "z-score": "inactive: 0.448"}
{"sequence": "GGUUACUUUUAUCCUGAAUTT against Plaat1", "z-score": "inactive: 0.552"}
{"sequence": "GGAAAGGAAGUAGAUAACUTT against Arcn1", "z-score": "inactive: 0.162"}
{"sequence": "GGUGAACUGCUUAAACAAATT against Gstt2", "z-score": "inactive: 1.5"}
{"sequence": "UUCUGAUGCCCUCCAUUUUTT against Psg19", "z-score": "inactive: -0.612"}
{"sequence": "GGCCAAACAACUGGUGAAGTT against Nelfe", "z-score": "inactive: -0.832"}
{"sequence": "GGUAAUAAAGCAAUUGAGUTT against Mcm5", "z-score": "inactive: -0.204"}
{"sequence": "GCUUGAUUUCUACGUUCAUTT against Slc15a2", "z-score": "inactive: 1.44"}
{"sequence": "GGAAGCAGGAUCAGUUCGATT against Trrap", "z-score": "inactive: -1.4"}
{"sequence": "GGACUUGGAACACCAGUACTT against Pomt1", "z-score": "inactive: -0.816"}
{"sequence": "GGCCCUGUGUUUAUCAAAGTT against Cntn3", "z-score": "inactive: 0.814"}
{"sequence": "CCAAUCUCUGGCUAUAAAUTT against Teddm2", "z-score": "inactive: -0.853"}
{"sequence": "CCAUUGGACACCUGACAGATT against Rasgef1c", "z-score": "inactive: -0.359"}
{"sequence": "GGAGAUUUAAACAGCUAGGTT against Gmip", "z-score": "inactive: -0.418"}
{"sequence": "GGCAUCCUUGAGCUUUAAATT against Nufip2", "z-score": "inactive: -0.0213"}
{"sequence": "GCAUAAGGAUAUAGCAUUATT against Ctla4", "z-score": "inactive: -0.72"}
{"sequence": "AGGAAUCCUCUAAAUGACCTT against Vmn1r174", "z-score": "inactive: -0.58"}
{"sequence": "GGGCUUAAGGAGCACUGCATT against Tnxb", "z-score": "inactive: -0.874"}
{"sequence": "GCUGGGUUCAACAUUAUAGTT against Olfr160", "z-score": "inactive: 1.11"}
{"sequence": "GCCUUCCUCCGUUAAUCCATT against Kank2", "z-score": "inactive: 0.844"}
{"sequence": "GGAUGACCUCAUGCUUAUUTT against Prss37", "z-score": "active: -2.31"}
{"sequence": "GCAAGUAUGCCAUGAGAUUTT against Fam205c", "z-score": "inactive: -0.536"}
{"sequence": "GGUUAAAUACAAGUCACAATT against Slc16a12", "z-score": "inactive: -0.443"}
{"sequence": "GGCCUCAAAGUGUGGUUGUTT against Rhob", "z-score": "inactive: 0.169"}
{"sequence": "GGGAUAGGAUUAAACAUAGTT against Hivep2", "z-score": "inactive: -0.18"}
{"sequence": "CCUCCUGUACGAACACGCATT against Sars2", "z-score": "inactive: -0.118"}
{"sequence": "GGCUAUGGAUGAACUGGUUTT against Zfp513", "z-score": "inactive: -1.14"}
{"sequence": "GCUGUUUUGUCAGUCACAUTT against Olfr519", "z-score": "inactive: -1.08"}
{"sequence": "GGCCCAAGCUCAACACAAUTT against Aida", "z-score": "active: 2.31"}
{"sequence": "CCCUUACAACUCAAGUAUCTT against Lrig3", "z-score": "active: 2.1"}
{"sequence": "GGUCCGACUGUCAUGAAUGTT against Slc49a4", "z-score": "inactive: -0.328"}
{"sequence": "GGAAGCUGAGAACCUAGCUTT against Retnlg", "z-score": "inactive: 1.03"}
{"sequence": "GGAUCACCCAUCAAAUAUATT against Oxct1", "z-score": "inactive: -0.343"}
{"sequence": "GGUCACUGACAGGUACCAUTT against E130018O15Rik", "z-score": "inactive: 0.864"}
{"sequence": "GGCGGUAAAUCAAGUGGAATT against Abhd14b", "z-score": "inactive: 0.345"}
